Measurements as given in PMC8500765.
No constants are given. Whether binding was seen depends on the method and setting. In cells and extracts the contact can be indirect. Some binding calls cover weakened binding; strength is not graded here.

T1: β-catenin, HPMECs (human (endogenous in HPMECs)), P35222
T1 chain: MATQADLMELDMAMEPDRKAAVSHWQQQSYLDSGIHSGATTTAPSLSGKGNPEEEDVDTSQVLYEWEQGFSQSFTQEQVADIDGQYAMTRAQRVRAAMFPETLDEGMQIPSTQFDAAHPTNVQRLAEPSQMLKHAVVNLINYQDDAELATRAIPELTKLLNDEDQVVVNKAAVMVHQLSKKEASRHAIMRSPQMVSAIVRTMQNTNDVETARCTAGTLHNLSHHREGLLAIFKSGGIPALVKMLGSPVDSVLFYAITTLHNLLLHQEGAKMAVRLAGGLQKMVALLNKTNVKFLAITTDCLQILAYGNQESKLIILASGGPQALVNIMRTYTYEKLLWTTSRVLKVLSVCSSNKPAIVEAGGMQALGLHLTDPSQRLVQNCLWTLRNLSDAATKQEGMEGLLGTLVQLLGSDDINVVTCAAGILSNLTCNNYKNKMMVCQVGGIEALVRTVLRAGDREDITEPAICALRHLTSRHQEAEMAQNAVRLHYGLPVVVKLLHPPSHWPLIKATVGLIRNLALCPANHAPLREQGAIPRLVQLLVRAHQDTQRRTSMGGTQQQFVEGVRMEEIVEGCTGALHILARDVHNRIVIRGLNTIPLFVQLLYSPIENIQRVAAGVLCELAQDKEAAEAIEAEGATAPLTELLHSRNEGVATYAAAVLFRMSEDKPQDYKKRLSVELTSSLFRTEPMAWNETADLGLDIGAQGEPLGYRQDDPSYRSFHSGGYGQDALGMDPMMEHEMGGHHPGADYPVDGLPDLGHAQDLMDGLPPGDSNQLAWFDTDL


Legend:
[1] = target: β-catenin, mouse lung (mouse (endogenous in lung tissue)) (UniProt Q02248); experiment: co-IP; lung tissue lysates of control or sham-operated mice and of mice after LPS injection or CLP surgery (different times); precleared with protein A/G, anti-β-catenin (1:100) overnight at 4°C, protein A/G, six washes, Western blot for VE-cadherin
[2] = target: T1, β-catenin, HPMECs (human (endogenous in …)); experiment: proximity ligation; Duolink in situ PLA on fixed HPMECs with anti-VE-cadherin and anti-β-catenin antibodies; control, 24 h LPS, Sirt3 shRNA or Sirt3 over; confocal microscopy; conditions: remark: other sources report otherwise
[3] = target: T1, β-catenin, HPMECs (human (endogenous in …)); experiment: co-IP; HPMEC lysates, with or without LPS, after transfection with scramble, Sirt3 shRNA, vector or Sirt3 over; precleared with protein A/G, anti-β-catenin (1:100) overnight at 4°C, protein A/G, six washes, Western blot for VE-cadherin; conditions: remark: other sources report otherwise

Row | binding [1] | binding [2] | binding [3] | Binder
1 | binds | – | – | vascular endothelial cadherin (VE-cadherin), mouse lung (protein, UniProt P55284 46-784) DWIWNQMHIDEEKNESLPHYVGKIKSNVNRQNAKYVLQGEFAGKIFGVDANTGNVLAYERLDREKVSEYFLTALIVDKNTNKNLEQPSSFTVKVHDINDNWPVFSHQVFNASVPEMSAIGTSVIRVTAVDADDPTVAGHATVLYQIVKGNEYFSIDNSGLIFTKIKNLDREKQAEYKIVVETQDALGLRGESGTATVMIRLEDINDNFPVFTQSTYTFSVPEDIRVGKPLGFLTVVDPDEPQNRMTKYSIMQGEYRDTFTIETDPKRNEGIIKPTKSLDYEVIQQYTFYIEATDPTIRYEYLSSTSGKNKAMVTINVLDVDEPPVFQRHFYHFKLPENQKKPLIGTVVAKDPDKAQRSIGYSIRKTSDRGQFFRITKQGNIYNEKELDRETYAWYNLTVEANELDSRGNPVGKESIVQVYIEVLDENDNPPEFAQPYEPKVCENAAQGKLVVQISATDKDVVPVNPKFKFALKNEDSNFTLINNHDNTANITVKYGQFNREHAKFHYLPVLISDNGVPSLTGTSTLTVGVCKCNEQGEFTFCEEMAAQAGVSIQALVAIFLCILTITVITLLIILRRRIRKQAHAHSKSALEIHEQLVTYDEEGGGEMDTTSYDVSVLNSVRGGSTKPLRSTMDARPAVYTQVQKPPRLAPGLHGGPREMATMIDVKKEEADNDGGGPPYDTLHIYGYEGAESIAESLSSLSTNSSDSDIDYDFLNDWGPRFKMLAELYGSDPQEELII
2 | – | binds | binds | vascular endothelial cadherin (VE-cadherin), HPMECs, P33151 48-784 (protein) DWIWNQMHIDEEKNTSLPHHVGKIKSSVSRKNAKYLLKGEYVGKVFRVDAETGDVFAIERLDRENISEYHLTAVIVDKDTGENLETPSSFTIKVHDVNDNWPVFTHRLFNASVPESSAVGTSVISVTAVDADDPTVGDHASVMYQILKGKEYFAIDNSGRIITITKSLDREKQARYEIVVEARDAQGLRGDSGTATVLVTLQDINDNFPFFTQTKYTFVVPEDTRVGTSVGSLFVEDPDEPQNRMTKYSILRGDYQDAFTIETNPAHNEGIIKPMKPLDYEYIQQYSFIVEATDPTIDLRYMSPPAGNRAQVIINITDVDEPPIFQQPFYHFQLKENQKKPLIGTVLAMDPDAARHSIGYSIRRTSDKGQFFRVTKKGDIYNEKELDREVYPWYNLTVEAKELDSTGTPTGKESIVQVHIEVLDENDNAPEFAKPYQPKVCENAVHGQLVLQISAIDKDITPRNVKFKFILNTENNFTLTDNHDNTANITVKYGQFDREHTKVHFLPVVISDNGMPSRTGTSTLTVAVCKCNEQGEFTFCEDMAAQVGVSIQAVVAILLCILTITVITLLIFLRRRLRKQARAHGKSVPEIHEQLVTYDEEGGGEMDTTSYDVSVLNSVRRGGAKPPRPALDARPSLYAQVQKPPRHAPGAHGGPGEMAAMIEVKKDEADHDGDGPPYDTLHIYGYEGSESIAESLSSLGTDSSDSDVDYDFLNDWGPRFKMLAELYGSDPREELLY
